Experimental data taken from PubChem BioAssay AID2662 (National Center for Advancing Translational Sciences (NCATS), 2010).
Several values for one entry are separate records, joined by “and”; a condition that tells them apart may be missing. Identical values can stand only once. In all, about 290,000 compounds went through this assay and about 110 (0.038%) were called active. Inconclusive means that the source gave no clear call. Such entries were picked first, then a sample of the others. Calls come from the whole dose curve; as a rule, active = well fitted inhibition curve with a large enough effect in the polarisation, with a control signal flat (not every such curve was filed as active); inconclusive = small, poorly fitted or top-dose-only effect, or effect the other way, or a change in a side signal; inactive = no such curve, though single readings can be large or run the other way; the % refers to the polarisation. Where the call is inconclusive, the potency comes from a doubtful curve fit. A note “side channel” means that the fit belongs to a control or component signal, not to the main read-out.

Amino acid sequences for entries named in this document (tags omitted).
UniProt Q03164, whole entry, looked up: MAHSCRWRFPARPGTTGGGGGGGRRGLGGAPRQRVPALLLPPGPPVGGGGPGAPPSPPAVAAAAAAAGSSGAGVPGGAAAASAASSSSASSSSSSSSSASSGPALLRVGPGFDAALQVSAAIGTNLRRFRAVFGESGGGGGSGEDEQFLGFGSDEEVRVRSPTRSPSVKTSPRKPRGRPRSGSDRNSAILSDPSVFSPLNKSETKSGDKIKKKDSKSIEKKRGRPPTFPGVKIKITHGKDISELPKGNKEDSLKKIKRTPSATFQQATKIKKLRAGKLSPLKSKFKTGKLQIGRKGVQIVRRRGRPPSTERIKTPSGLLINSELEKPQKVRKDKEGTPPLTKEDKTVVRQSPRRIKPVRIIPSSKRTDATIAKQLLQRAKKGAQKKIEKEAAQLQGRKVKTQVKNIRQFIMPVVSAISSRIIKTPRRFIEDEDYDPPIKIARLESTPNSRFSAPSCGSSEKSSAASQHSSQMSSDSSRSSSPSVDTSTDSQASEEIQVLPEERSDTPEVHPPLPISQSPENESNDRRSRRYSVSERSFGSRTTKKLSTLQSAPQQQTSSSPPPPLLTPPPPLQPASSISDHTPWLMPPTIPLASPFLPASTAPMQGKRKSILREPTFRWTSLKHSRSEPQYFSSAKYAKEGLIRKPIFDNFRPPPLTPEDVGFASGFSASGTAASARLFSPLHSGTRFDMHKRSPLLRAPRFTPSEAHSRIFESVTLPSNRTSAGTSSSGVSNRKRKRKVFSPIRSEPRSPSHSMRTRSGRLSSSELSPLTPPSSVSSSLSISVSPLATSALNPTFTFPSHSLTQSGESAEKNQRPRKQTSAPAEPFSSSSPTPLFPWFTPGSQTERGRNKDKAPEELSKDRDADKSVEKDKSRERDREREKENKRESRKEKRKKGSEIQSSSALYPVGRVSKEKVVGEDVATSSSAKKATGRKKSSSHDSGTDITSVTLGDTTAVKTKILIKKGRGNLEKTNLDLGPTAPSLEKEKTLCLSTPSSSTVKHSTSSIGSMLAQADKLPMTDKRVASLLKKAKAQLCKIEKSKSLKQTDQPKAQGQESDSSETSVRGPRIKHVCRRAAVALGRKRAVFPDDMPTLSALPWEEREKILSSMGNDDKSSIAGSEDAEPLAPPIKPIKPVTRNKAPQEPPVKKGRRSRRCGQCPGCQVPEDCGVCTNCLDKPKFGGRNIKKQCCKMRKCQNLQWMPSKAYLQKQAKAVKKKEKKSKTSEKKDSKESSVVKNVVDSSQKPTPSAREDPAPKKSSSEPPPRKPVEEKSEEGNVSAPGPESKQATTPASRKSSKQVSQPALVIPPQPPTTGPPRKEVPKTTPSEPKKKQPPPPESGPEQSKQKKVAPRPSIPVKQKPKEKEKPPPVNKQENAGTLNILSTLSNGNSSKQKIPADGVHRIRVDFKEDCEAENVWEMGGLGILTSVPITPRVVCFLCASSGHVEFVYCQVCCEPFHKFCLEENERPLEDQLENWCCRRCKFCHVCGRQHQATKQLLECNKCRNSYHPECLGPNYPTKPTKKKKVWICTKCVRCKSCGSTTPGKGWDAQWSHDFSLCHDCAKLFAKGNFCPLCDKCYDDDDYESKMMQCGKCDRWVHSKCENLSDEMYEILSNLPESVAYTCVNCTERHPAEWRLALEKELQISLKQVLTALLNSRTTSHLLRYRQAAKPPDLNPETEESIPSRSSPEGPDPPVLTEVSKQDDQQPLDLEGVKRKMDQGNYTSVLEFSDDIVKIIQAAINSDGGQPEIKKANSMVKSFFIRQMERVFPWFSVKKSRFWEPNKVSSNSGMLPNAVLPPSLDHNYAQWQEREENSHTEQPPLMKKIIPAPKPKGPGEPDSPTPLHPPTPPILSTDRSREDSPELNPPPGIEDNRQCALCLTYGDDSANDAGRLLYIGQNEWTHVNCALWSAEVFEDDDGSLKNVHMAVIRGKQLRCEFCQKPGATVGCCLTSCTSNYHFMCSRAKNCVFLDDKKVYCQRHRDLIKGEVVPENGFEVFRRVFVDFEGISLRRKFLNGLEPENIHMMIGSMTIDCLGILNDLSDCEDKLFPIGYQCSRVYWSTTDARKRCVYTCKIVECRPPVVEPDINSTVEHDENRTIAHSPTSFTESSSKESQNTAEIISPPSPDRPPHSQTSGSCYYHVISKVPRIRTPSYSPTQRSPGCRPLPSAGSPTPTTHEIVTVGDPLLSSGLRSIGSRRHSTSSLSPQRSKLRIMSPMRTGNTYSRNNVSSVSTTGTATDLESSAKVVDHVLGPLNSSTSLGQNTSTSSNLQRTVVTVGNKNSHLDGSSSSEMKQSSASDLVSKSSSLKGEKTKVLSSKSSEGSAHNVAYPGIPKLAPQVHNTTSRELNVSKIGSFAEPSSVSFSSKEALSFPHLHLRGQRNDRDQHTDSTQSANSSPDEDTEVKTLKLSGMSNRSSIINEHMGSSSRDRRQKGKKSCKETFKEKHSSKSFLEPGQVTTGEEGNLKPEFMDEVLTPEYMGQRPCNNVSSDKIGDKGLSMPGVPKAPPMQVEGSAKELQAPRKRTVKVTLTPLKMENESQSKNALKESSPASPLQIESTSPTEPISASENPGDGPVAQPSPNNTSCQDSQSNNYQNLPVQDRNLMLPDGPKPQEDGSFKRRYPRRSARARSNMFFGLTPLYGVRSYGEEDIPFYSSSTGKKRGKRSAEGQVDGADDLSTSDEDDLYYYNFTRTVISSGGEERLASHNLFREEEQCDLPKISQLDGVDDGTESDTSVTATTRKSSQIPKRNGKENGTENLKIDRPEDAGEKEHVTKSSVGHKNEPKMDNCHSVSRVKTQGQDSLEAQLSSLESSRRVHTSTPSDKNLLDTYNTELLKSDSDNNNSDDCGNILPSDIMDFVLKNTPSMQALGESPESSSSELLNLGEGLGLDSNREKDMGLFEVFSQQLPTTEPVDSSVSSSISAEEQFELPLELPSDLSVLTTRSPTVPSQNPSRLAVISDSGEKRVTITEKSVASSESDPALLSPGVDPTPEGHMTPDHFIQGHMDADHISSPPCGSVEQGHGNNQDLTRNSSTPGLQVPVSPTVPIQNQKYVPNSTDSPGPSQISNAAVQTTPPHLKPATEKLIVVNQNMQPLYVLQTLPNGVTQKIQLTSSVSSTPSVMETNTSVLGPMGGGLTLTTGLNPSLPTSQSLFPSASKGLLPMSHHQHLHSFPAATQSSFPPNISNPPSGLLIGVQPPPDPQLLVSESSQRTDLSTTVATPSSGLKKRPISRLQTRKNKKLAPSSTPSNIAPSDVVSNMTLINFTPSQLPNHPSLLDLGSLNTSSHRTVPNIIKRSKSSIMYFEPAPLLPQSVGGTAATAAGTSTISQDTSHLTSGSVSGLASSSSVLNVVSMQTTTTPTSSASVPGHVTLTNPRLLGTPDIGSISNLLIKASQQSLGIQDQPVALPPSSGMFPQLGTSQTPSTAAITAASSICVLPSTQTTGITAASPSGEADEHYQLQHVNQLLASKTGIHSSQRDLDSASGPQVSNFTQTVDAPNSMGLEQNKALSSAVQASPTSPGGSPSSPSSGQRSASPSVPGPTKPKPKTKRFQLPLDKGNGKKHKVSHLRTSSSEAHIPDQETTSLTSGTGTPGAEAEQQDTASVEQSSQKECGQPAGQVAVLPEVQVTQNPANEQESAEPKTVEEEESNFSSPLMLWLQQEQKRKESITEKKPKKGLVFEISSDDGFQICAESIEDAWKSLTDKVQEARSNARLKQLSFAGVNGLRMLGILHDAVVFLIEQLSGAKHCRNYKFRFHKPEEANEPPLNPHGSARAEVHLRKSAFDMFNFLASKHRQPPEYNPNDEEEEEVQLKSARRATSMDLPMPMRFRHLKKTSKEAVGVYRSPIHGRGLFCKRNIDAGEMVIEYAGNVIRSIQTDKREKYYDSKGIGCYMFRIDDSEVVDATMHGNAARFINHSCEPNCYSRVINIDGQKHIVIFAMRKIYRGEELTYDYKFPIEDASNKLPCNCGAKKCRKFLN

Each compound was assayed against Histone-lysine N-methyltransferase 2A (Homo sapiens) (UniProt Q03164) (assay: qHTS Fluorescence Polarization Assay for Inhibitors of MLL CXXC domain - DNA interaction). Conditions: MLL-CXXC / FITC-HOXA9 DNA fluorescence polarization; series mostly up to 115 µM.
Summary of the method: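 Purified MLL-CXXC (added from a 7 uM solution) was preincubated 5 min at ambient with pinned compounds in 50 mM Tris-HCl pH 7.5, 50 mM NaCl, 1 mM DTT, 0.05% BSA. Fluorescein-labeled HOX-A9 DNA (50 nM solution) followed, 30 min, then polarization read.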
Potency is the fitted concentration of half-maximal effect.

| Structure (SMILES) | Potency |
| --- | --- |
| COc1ccc(N(C)S(=O)(=O)c2ccc(Cl)c(C(=O)NCCc3ccc(Cl)cc3)c2)cc1 | inconclusive: 15.8 µM [fluorescent, side channel, partial curve] |
| CC(=O)Nc1ccc(N=Cc2nc(-c3ccc(C)cc3)oc2O)cc1 | inconclusive: 44.7 µM [fluorescent, side channel, partial curve] |
| Cn1nc(-c2ccc(Cl)cc2)nc2c(=O)n(C)c(=O)nc1-2 | active: 31.6 µM |
| CCCCS(=O)(=O)Nc1ccc2ncn(C)c(=O)c2c1 | inactive |
| CCCCn1c(=O)n(C)c(=O)c2c(C(F)(F)F)cc(-c3ccncc3)nc21 | inactive |
| Nc1c(C(=O)OCC2CCCO2)c2nc3ccccc3nc2n1C1CCCCC1 (stereo not given) | inactive |
| O=C(CSc1nnc(SCc2ccccc2)s1)NNC(=S)Nc1ccccc1 | inconclusive: 44.7 µM [quencher, side channel, single point] |
| CCc1c(C(=O)Nc2ccccc2)c(C)[nH]c(=S)c1C#N | inactive |
| Cc1ccc(C(=O)Nc2nnc(CC(=O)N/N=C/c3ccc(O)c(O)c3)s2)cc1 | inactive |
| N#Cc1c(-c2ccccc2)nc(SCC(=O)Nc2ccc(OC(F)(F)Cl)cc2)[nH]c1=O | inconclusive: 39.8 µM [inhibitor, single point] |
| Cc1c(Cl)cccc1NC(=O)CSc1ncnc2c1cnn2CCO | inconclusive: 10 µM [quencher, side channel, single point] |
| Cc1ccc(/C=N/Nc2nncn2N)cc1 | inconclusive: 31.6 µM [fluorescent, side channel, partial curve] |
| Cc1ccccc1NC(=O)NCCCCc1ccccc1 | inconclusive: 14.1 µM [fluorescent, side channel, single point] |
| Cn1cc(C2=C(c3ccc(Cl)cc3Cl)C(=O)NC2=O)c2ccccc21 | inconclusive: 35.5 µM [fluorescent, side channel, partial curve] and inconclusive: 31.6 µM [fluorescent, side channel, partial curve] |
| O=C(Nc1ccccc1Cl)Nc1ccnn1C1CCN(C(=O)c2cscn2)CC1 | inconclusive: 1.12 µM [fluorescent, side channel, full curve] |
| O=C(O)/C=C/C(=O)c1c(-c2ccccc2)[nH]c2ccccc12 | inconclusive: 31.6 µM [inhibitor, partial curve] |
| COc1ccc(C(=O)NC(Cn2ccnc2)C(C)(C)C)cc1OC1CCN(C(C)C)CC1 (stereo not given) | inconclusive: 15.8 µM [inhibitor, single point] |
| COc1ccccc1C1OC2=C(Nc3ccc([N+](=O)[O-])cc3N2)C1=O (stereo not given) | inconclusive: 35.5 µM [inhibitor, single point] |
| Cc1ccc(C(=O)Nc2ccc(S(=O)(=O)O)c3cc(S(=O)(=O)O)cc(S(=O)(=O)O)c23)cc1NC(=O)c1cccc(NC(=O)Nc2cccc(C(=O)Nc3cc(C(=O)Nc4ccc(S(=O)(=O)O)c5cc(S(=O)(=O)O)cc(S(=O)(=O)O)c45)ccc3C)c2)c1 | active: 14.1 µM and active: 7.94 µM |
| Cc1ccc(S(=O)(=O)NC2=NCCCCC2)cc1 | inconclusive: 31.6 µM [inhibitor, single point] |

| Structure (SMILES) | Potency |
| --- | --- |
| COc1ccc(C(=O)OCC(=O)Nc2nnc(-c3ccccc3)o2)cc1 | inconclusive: 10 µM [quencher, side channel, single point] |
| C=CCn1c(SCC(=O)c2ccc(O)c(O)c2)nnc1-c1ccccc1OC | inactive |
| O=C(c1cccc(-n2cccc2)c1)N1CCN(S(=O)(=O)c2ccc(F)cc2)CC1 | inconclusive: 7.94 µM [activator, full curve] |
| Cn1cc(/C=C(\C#N)C(=O)Nc2ncc(Cc3cccc(Cl)c3)s2)c2ccccc21 | inconclusive: 39.8 µM [fluorescent, side channel, partial curve] |
| Cc1ccc(C2=NN(CC(=O)NCc3cccs3)C(=O)CC2)cc1 | inconclusive: 39.8 µM [fluorescent, side channel, single point] |
| CS(=O)(=O)c1ccc2nc(NC(=O)c3cccc(Cl)c3)sc2c1 | inconclusive: 14.1 µM [fluorescent, side channel, single point] |
| COc1ccc(/C=C2/C(=O)N(c3ccccc3)N=C2C)c(OC)c1 | inconclusive: 39.8 µM [inhibitor, single point] |
| C/C(=N\Nc1nc2ccccc2c(=O)n1O)c1ccco1 | inconclusive: 20 µM [inhibitor, partial curve] |
| O=C(c1ccccc1)c1ccc(OCC(O)CNCc2ccc(Cl)cc2)cc1 (stereo not given) | inconclusive: 89.1 µM [inhibitor, single point] |
| CN1C(=O)N(C)c2ccc(C=O)c3cccc1c23 | inconclusive: 8.91 µM [fluorescent, side channel, partial curve] |
| O=C(/C=C/c1ccc(O)c(O)c1)NC(=O)c1ccccc1O | inactive |
| CCN1CCN(CCNC(=O)c2ccc(/C=C3\Sc4ccccc4N(Cc4ccccc4F)C3=O)cc2)CC1 | inconclusive: 28.2 µM [quencher, side channel, partial curve] |
| O=c1oc2ccccc2cc1-c1nc2c(s1)CCc1ccccc1-2 | inconclusive: 1.26 µM [fluorescent, side channel, full curve, poor fit] |
| COc1ccc(C)cc1NC(=O)c1ccc2c(SCC(=O)O)c3c(nc2c1)CCCC3 | inactive |
| O=C1Nc2ccccc2/C1=C/c1cnc(-c2ccccc2)[nH]1 | inconclusive: 25.1 µM [fluorescent, side channel, partial curve] |
| CCOC(=O)COc1ccc2c(C)c(CCN(CC)CC)c(=O)oc2c1Cl | inactive |
| CCCn1c2ccccc2c2nnc(SCc3[nH]c(=O)[nH]c3C(=O)CCCCC(=O)OCC)nc21 | inactive |
| Cc1ccc(S(=O)(=O)N2CCCC2)s1 | inconclusive: 14.1 µM [fluorescent, side channel, partial curve] |
| O=C(O)c1ccc(CN(c2ccccn2)S(=O)(=O)c2ccccc2)cc1 | inactive |
| Cc1onc(-c2ccccc2Cl)c1C(=O)Nc1cccc2nsnc12 | inconclusive: 8.91 µM [quencher, side channel, single point] |

| Structure (SMILES) | Potency |
| --- | --- |
| CCC1(c2ccc(Cl)cc2)NC(=O)N(Cc2ccc(C(=O)OC)cc2)C1=O (stereo not given) | inconclusive: 1.41 µM [fluorescent, side channel, full curve] |
| COc1ccccc1N1CCN(c2ccc(-c3ccccc3)nn2)CC1 | inactive |
| S=C(NCCc1ccc(Cl)cc1)NCc1ccco1 | inconclusive: 8.91 µM [fluorescent, side channel, partial curve] |
| CCOC(=O)C1=C(O)/C(=C/c2ccc(OCC(=O)O)c(OCC)c2)SC1=Nc1ccc(OC)cc1 | inactive |
| Cc1ccc(C(=O)NN2C(=O)/C(=C/c3cn(C)c4ccccc34)SC2=S)cc1 | inconclusive: 7.94 µM [fluorescent, side channel, full curve] |
| COc1cc(/C=C/c2ccc3cccc(O)c3n2)cc(Cl)c1OC | inconclusive: 14.1 µM [fluorescent, side channel, single point] |
| CCSc1nnc(-c2sc3nnc(-c4ccccc4)c(-c4ccccc4)c3c2N)o1 | inconclusive: 22.4 µM [fluorescent, side channel, partial curve] |
| CCOC(=O)C(=NCCCN(C)C)NNc1ccc(Br)cc1 | inconclusive: 35.5 µM [fluorescent, side channel, partial curve, poor fit] |
| N=c1c(C(=O)NCC2CCCO2)cc2c(=O)n3ccccc3nc2n1Cc1ccc(Cl)cc1 (stereo not given) | inactive |
| CC(=O)Nc1cccc(NC(=O)COC(=O)CO/N=C(\C)c2ccc3c(c2)OCO3)c1 | inconclusive: 89.1 µM [quencher, side channel, single point] |
| CC1(C)CC(=O)C=C(NCCN2CCN(C(=S)Nc3ccccc3)CC2)C1 | inconclusive: 1 µM [inhibitor, full curve, poor fit] |
| O=C(CN1CCOCC1)Nc1ncc(Cc2cccc3ccccc23)s1 | inactive |
| CN(Cc1ccc(F)cc1)Cc1nc(CCc2ccccc2)no1 | inconclusive: 5.01 µM [inhibitor, partial curve] |
| O=c1cc(O)nc(-c2ccc(Cl)cc2)s1 | inconclusive: 1.41 µM [fluorescent, side channel, full curve, poor fit] |
| COc1cccc(O)c1CN1CCC(C(=O)Nc2ccc(-c3cccc(C)c3)cc2)CC1 | inconclusive: 15.8 µM [quencher, side channel, partial curve] |
| O=C(NC1CCCCCC1)c1ccc(CN2CCOCC2)cc1 | inconclusive: 11.2 µM [quencher, side channel, single point] |
| Cc1c2ccccc2nc2c(F)c(NCCO)c(F)c(F)c12 | inconclusive: 35.5 µM [fluorescent, side channel, partial curve] |
| COc1ccc(NC(=O)CN(c2ccc(Cl)cc2)S(C)(=O)=O)cc1OC | inconclusive: 25.1 µM [inhibitor, partial curve, poor fit] |
| COc1cc(CNC(C)c2ccccc2)cc(Br)c1OCc1ccc(F)cc1 (stereo not given) | inconclusive: 10 µM [quencher, side channel, partial curve, poor fit] |
| O=C(NC12CC3CC(CC(C3)C1)C2)c1cccc(OC(F)F)c1 | inconclusive: 10 µM [fluorescent, side channel, partial curve] |
